# Results from PubChem BioAssay (EPA / NIEHS).
# The chains behind the UniProt entries cited, without tags or fusion partners. Where a name states a change or a piece, a line headed by the entry shows the natural chain unless it says otherwise.
# UniProt P41144: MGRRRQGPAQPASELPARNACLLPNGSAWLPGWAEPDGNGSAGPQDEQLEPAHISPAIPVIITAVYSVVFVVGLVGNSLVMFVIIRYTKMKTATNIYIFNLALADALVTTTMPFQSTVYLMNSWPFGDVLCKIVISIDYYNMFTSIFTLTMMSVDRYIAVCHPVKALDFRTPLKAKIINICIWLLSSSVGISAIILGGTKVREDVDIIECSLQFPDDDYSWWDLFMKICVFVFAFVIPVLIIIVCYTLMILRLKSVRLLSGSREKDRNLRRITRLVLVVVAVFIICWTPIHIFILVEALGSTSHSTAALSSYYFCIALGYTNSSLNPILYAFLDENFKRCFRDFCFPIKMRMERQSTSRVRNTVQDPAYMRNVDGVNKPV
# UniProt P50406, whole entry, looked up: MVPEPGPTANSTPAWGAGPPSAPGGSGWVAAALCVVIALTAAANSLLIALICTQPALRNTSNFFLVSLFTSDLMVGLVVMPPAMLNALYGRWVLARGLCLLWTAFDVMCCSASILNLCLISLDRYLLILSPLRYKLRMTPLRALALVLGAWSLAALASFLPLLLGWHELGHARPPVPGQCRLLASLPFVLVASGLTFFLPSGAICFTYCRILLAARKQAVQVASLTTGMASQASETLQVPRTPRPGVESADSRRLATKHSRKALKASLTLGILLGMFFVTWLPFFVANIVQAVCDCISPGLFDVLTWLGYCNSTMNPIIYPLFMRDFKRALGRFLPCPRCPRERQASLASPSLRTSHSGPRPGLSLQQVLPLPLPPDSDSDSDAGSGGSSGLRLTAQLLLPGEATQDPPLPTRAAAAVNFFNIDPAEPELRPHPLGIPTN
# UniProt P30542, whole entry, looked up: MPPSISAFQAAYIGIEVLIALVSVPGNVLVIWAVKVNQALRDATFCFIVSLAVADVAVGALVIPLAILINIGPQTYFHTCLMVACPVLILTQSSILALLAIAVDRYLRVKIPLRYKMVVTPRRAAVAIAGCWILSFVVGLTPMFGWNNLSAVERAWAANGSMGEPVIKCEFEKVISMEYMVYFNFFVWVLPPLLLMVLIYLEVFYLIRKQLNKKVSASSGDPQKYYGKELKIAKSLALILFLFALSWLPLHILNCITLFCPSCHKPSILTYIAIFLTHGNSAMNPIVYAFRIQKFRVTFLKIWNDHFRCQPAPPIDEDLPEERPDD
# UniProt Q15722: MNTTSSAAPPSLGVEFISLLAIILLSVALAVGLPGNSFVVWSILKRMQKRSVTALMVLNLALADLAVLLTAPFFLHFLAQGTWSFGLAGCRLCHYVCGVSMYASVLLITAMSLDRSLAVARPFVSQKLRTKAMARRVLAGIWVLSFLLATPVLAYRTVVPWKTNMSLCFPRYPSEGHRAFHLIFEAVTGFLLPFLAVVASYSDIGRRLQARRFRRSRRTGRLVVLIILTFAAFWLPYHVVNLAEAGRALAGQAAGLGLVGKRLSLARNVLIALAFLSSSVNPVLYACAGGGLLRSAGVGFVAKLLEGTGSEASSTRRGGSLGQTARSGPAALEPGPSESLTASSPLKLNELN
# UniProt P08913, whole entry, looked up: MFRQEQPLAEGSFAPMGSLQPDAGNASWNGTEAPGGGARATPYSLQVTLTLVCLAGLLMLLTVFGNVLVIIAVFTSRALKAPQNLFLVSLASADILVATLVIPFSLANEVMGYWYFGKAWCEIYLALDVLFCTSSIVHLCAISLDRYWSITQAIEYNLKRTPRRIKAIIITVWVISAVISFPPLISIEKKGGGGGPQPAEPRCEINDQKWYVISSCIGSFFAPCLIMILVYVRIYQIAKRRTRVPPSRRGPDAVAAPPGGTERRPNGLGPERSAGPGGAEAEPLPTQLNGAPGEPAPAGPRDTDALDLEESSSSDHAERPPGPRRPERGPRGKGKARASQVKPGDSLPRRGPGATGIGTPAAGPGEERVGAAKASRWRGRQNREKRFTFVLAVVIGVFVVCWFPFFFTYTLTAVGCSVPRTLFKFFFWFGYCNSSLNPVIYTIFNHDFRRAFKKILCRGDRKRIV
# UniProt P34969, whole entry, looked up: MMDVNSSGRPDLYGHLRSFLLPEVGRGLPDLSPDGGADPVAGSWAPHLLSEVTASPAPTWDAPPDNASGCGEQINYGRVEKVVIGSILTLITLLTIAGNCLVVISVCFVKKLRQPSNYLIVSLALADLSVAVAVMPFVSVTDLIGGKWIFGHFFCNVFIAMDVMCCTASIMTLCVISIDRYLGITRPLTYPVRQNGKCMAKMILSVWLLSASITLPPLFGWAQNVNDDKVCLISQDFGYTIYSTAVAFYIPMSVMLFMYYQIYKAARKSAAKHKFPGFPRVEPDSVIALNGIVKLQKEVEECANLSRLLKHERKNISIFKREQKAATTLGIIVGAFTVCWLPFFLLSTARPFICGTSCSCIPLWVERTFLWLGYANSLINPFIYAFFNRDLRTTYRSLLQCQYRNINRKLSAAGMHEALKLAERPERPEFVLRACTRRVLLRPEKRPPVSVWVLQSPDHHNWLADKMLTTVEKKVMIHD
# UniProt P21728, whole entry, looked up: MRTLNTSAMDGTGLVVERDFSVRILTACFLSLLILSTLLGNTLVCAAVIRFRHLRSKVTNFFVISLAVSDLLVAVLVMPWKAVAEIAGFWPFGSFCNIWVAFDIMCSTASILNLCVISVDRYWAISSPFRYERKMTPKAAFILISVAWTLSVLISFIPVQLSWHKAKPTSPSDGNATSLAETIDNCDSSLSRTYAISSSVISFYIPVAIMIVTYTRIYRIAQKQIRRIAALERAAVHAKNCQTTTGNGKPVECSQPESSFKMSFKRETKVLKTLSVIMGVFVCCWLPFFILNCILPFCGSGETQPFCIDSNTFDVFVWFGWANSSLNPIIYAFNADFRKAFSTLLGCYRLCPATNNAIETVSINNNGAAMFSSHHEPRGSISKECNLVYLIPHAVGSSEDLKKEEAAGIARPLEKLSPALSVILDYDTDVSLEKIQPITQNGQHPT
# UniProt P14416, whole entry, looked up: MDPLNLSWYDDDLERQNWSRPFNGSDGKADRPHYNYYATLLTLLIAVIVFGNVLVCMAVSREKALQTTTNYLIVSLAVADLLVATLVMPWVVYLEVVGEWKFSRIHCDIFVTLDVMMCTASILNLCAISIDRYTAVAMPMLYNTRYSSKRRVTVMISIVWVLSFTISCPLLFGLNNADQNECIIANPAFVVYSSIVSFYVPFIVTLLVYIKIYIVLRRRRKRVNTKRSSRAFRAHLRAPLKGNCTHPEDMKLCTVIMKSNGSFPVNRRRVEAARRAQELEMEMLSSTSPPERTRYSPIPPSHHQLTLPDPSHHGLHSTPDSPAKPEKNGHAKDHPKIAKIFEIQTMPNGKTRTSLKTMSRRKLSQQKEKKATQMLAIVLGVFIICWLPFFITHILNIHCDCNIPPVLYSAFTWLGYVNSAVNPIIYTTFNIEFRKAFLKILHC
# UniProt P08588, whole entry, looked up: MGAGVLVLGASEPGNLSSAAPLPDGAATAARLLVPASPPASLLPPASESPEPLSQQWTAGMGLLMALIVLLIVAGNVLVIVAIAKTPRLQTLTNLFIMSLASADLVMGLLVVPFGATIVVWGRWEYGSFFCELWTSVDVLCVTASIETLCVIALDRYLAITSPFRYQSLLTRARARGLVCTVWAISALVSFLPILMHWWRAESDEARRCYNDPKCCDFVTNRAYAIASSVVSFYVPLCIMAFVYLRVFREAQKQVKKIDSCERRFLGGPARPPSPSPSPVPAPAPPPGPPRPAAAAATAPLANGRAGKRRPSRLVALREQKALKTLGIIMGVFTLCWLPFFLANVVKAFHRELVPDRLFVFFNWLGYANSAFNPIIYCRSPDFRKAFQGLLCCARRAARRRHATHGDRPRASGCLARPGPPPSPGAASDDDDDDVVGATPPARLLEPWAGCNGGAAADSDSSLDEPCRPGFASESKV
# UniProt P18825, whole entry, looked up: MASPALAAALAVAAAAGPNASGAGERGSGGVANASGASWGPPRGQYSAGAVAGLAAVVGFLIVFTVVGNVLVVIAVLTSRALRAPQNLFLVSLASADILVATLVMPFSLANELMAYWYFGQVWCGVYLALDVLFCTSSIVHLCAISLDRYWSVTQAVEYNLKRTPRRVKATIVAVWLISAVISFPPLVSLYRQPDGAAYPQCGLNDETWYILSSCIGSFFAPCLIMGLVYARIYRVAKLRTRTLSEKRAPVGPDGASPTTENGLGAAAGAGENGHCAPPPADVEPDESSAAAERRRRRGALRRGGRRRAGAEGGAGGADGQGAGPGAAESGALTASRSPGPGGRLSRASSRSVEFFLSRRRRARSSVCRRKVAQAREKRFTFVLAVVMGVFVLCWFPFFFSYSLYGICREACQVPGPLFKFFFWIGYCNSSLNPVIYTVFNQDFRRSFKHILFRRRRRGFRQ
# UniProt P21917, whole entry, looked up: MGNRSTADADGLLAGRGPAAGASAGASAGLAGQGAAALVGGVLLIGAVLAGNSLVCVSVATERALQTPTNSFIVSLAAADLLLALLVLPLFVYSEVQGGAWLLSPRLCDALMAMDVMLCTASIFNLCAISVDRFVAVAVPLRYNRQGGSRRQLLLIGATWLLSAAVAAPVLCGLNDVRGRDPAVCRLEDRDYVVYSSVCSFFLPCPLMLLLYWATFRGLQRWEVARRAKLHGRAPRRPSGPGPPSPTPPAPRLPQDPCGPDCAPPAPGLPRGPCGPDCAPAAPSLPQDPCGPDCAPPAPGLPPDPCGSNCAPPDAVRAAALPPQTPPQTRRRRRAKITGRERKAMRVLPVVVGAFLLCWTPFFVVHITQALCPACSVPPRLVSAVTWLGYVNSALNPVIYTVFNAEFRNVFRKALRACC
# UniProt P25101, whole entry, looked up: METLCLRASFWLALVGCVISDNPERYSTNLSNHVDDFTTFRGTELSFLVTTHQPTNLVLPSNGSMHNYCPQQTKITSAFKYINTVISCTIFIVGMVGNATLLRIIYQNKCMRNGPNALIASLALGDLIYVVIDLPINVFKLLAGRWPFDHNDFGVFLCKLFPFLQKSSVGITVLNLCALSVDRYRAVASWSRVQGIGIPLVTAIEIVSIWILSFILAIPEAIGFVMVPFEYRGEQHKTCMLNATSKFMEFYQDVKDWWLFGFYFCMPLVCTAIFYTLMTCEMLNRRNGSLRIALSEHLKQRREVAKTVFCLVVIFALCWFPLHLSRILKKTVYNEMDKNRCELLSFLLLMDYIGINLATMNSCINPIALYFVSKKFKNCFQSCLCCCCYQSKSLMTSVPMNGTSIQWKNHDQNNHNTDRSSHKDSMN
# UniProt P35367, whole entry, looked up: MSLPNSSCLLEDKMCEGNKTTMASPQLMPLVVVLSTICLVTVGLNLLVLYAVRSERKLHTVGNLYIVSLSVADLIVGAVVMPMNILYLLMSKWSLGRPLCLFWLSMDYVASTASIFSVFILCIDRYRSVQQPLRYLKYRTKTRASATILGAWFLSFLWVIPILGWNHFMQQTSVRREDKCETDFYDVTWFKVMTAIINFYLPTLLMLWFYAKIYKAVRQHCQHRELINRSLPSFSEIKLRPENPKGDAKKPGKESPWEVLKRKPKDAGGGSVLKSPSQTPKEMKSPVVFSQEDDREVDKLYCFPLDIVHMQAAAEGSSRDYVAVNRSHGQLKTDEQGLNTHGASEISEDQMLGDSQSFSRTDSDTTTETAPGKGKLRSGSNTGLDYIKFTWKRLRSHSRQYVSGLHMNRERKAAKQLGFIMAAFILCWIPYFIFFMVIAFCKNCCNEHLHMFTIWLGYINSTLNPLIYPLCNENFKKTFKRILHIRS
# UniProt P11229: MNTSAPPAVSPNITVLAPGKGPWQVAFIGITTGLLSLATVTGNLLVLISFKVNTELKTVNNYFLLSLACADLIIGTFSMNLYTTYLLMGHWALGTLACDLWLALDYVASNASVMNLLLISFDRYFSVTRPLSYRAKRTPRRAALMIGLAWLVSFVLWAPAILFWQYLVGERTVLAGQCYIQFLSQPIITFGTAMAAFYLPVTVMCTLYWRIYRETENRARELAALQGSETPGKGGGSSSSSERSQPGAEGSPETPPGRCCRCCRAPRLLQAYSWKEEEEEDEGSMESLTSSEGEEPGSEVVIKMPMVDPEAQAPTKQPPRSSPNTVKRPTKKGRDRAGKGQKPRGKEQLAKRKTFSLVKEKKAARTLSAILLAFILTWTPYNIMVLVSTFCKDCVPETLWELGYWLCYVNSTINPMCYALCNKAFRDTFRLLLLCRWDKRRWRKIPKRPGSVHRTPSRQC
# Inconclusive means that the source gave no clear call. Such entries were picked first, then a sample of the others. For some assays here: Potencies of inconclusive entries are doubtful fits and often do not repeat. Calls of active or inactive are those of the source. How the source made its calls: active means hit-call score of the fitted dose curve at least 0.9, where 1 is the maximum; inconclusive means response in the unintended direction; inactive means score below 0.9.
# What was measured:
# [1] = target: guinea pig Opioid, Kappa 1 Receptor (OpiateK), OPRK1 (gene 100135587) (UniProt P41144); assay: NVS_GPCR_gOpiateK: NovaScreen (NVS) G Protein-Coupled Receptor Assay for guinea pig Opioid, Kappa 1 Receptor (OpiateK) (AID 2283252);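 further: radioligand displacement from kappa opioid receptor in guinea pig cerebellar membranes; active means reduced radioligand binding relative to DMSO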
# Summary of the method: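 Signal is scintillation counts of filter-trapped radioligand bound to guinea pig cerebellar membrane receptor, measured 2 hours post-dosing. Activity is loss of binding versus DMSO, first at 25 uM in duplicate, then as concentration series for actives.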
# [2] = target: human Serotonin, 5-Hydroxytryptamine Receptor 6 (5HT6), HTR6 (gene 3362) (UniProt P50406); assay: NVS_GPCR_h5HT6: NovaScreen (NVS) G Protein-Coupled Receptor Assay for human Serotonin, 5-Hydroxytryptamine Receptor 6 (5HT6) (AID 2283253)
# Summary of the method: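 Radioligand binding to 5HT6 in HEK293-derived membranes, cell-free, 1 h after dosing; bound ligand measured by filter-based scintillation counting. Primary screen in duplicate at 25 uM; actives retested in concentration series.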
# [3] = target: Type-1 angiotensin II receptor (Homo sapiens) (UniProt P30556); assay: NVS_GPCR_hAT1: NovaScreen (NVS) G Protein-Coupled Receptor Assay for human Angiotensin II receptor type 1 (AT1) (AID 2283263)
# Summary of the method: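 Membranes from KAN-TS cells; radioligand competitive displacement, 3 h, filtration and scintillation counting. Single-point duplicate screen at 25 uM, then concentration-response up to 50 uM for hits; loss of signal fitted versus DMSO.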
# [4] = target: human Adenosine A1 Receptor (AdoRA1), ADORA1 (gene 134) (UniProt P30542); assay: NVS_GPCR_hAdoRA1: NovaScreen (NVS) G Protein-Coupled Receptor Assay for human Adenosine A1 Receptor (AdoRA1) (AID 2283254)
# Summary of the method: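 Hum. cortical membranes + radioligand, cmpd 1 h; filtration, scintillation count. Readout = decrease vs DMSO. Primary 25 uM dup; hits → conc. series.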
# [5] = target: human Leukotriene B4 Receptor 1 (LTB4-BLT1), LTB4R (gene 1241) (UniProt Q15722); assay: NVS_GPCR_hLTB4_BLT1: NovaScreen (NVS) G Protein-Coupled Receptor Assay for human Leukotriene B4 Receptor 1 (LTB4-BLT1) (AID 2283271)
# Summary of the method: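 Radioligand displacement binding on receptor extracted from human neutrophils, cell-free, 1 h after dosing; filter-based scintillation counting. Primary screen in duplicate at 25 uM, actives retested in concentration-response up to 50 uM; loss of signal versus DMSO.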
# [6] = target: human Adrenergic, Alpha 2A Receptor (Adra2A), ADRA2A (gene 150) (UniProt P08913); assay: NVS_GPCR_hAdra2A: NovaScreen (NVS) G Protein-Coupled Receptor Assay for human Adrenergic, Alpha 2A Receptor (Adra2A) (AID 2283257)
# Summary of the method: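 Radioligand filter-binding was run on HT29-derived membranes, cell-free, read by scintillation counting 1 h after dosing. Primary screening was in duplicate at 25 uM, with concentration series in follow-up. Loss of signal versus DMSO indicates displacement.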
# [7] = target: human Serotonin, 5-Hydroxytryptamine Receptor 7 (5HT7), HTR7 (gene 3363) (UniProt P34969); assay: NVS_GPCR_h5HT7: NovaScreen (NVS) G Protein-Coupled Receptor Assay for human Serotonin, 5-Hydroxytryptamine Receptor 7 (5HT7) (AID 2283255);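 further: hits reduce specific radioligand binding relative to DMSO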
# Summary of the method: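 Radioligand displacement on membranes from CHO cells expressing human 5HT7, 1 h incubation, filter-based scintillation counting. Primary screen used a single 25 uM concentration in duplicate; actives were followed up in concentration series.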
# [8] = target: Beta-2 adrenergic receptor (Homo sapiens) (UniProt P07550); assay: NVS_GPCR_hAdrb2: NovaScreen (NVS) G Protein-Coupled Receptor Assay for human Adrenergic, Beta 2 Receptor (Adrb2) (AID 2283261)
# Summary of the method: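 Filter-based radioligand binding using receptor prepared from CHO cells, 1 h incubation, scintillation counting. Primary screen in duplicate at 25 uM, actives retested in concentration series; loss of binding relative to DMSO.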
# [9] = target: D(1A) dopamine receptor (Homo sapiens) (UniProt P21728); assay: NVS_GPCR_hDRD1: NovaScreen (NVS) G Protein-Coupled Receptor Assay for human Dopamine Receptor D1 (DRD1) (AID 2283269)
# Summary of the method: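 HEK293-derived receptor preparation; radioligand competitive displacement; 1 h; filtration + scintillation counting. DMSO = negative control/baseline. Primary: 25 uM, duplicate; secondary: concentration–response for actives.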
# [10] = target: human Adenosine A2a Receptor (AdoRA2a), ADORA2A (gene 135) (UniProt P29274); assay: NVS_GPCR_hAdoRA2a: NovaScreen (NVS) G Protein-Coupled Receptor Assay for human Adenosine A2a Receptor (AdoRA2a) (AID 2283256)
# Summary of the method: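 Cell-free radioligand binding on membranes from HEK293 expressing the receptor; competitive displacement read 1.5 h after dosing by filter-based scintillation counting. Primary screen in duplicate at 25 uM; actives followed in concentration series, with DMSO as baseline.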
# [11] = target: human Dopamine Receptor D2 (DRD2), DRD2 (gene 1813) (UniProt P14416); assay: NVS_GPCR_hDRD2s: NovaScreen (NVS) G Protein-Coupled Receptor Assay for human Dopamine Receptor D2 (DRD2) (AID 2283266)
# Summary of the method: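 Radioligand displacement used human DRD2 membranes extracted from CHO cells and was read by filter-based scintillation counting after 1.5 hours. Primary screening was in duplicate at 25 uM. Loss of signal versus DMSO was fitted, with concentration series in follow-up.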
# [12] = target: human Adrenergic, Beta 1 Receptor (Adrb1), ADRB1 (gene 153) (UniProt P08588); assay: NVS_GPCR_hAdrb1: NovaScreen (NVS) G Protein-Coupled Receptor Assay for human Adrenergic, Beta 1 Receptor (Adrb1) (AID 2283258)
# Summary of the method: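 Cell-free radioligand displacement on receptor from human neuroepithelioma cells; 2 h after dosing, filter-based scintillation counting. Primary screen in duplicate at 25 uM, actives retested in concentration series; loss of signal vs DMSO baseline.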
# [13] = target: human Adrenergic, Alpha 2c Receptor (Adra2C), ADRA2C (gene 152) (UniProt P18825); assay: NVS_GPCR_hAdra2C: NovaScreen (NVS) G Protein-Coupled Receptor Assay for human Adrenergic, Alpha 2c Receptor (Adra2C) (AID 2283259)
# Summary of the method: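 Radioligand binding on Sf9-expressed receptor membranes, 1 h after chemical dosing, filter-based scintillation read-out. Loss of binding fitted positively versus DMSO; primary duplicate screen at 25 uM, actives retested in concentration series.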
# [14] = target: human Dopamine Receptor D4.4 (DRD4.4), DRD4 (gene 1815) (UniProt P21917); assay: NVS_GPCR_hDRD4.4: NovaScreen (NVS) G Protein-Coupled Receptor Assay for human Dopamine Receptor D4.4 (DRD4.4) (AID 2283264)
# Summary of the method: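 Radioligand displacement on human DRD4.4 from CHO-derived membranes, 1 hour incubation, bound counts read by filtration and scintillation. Primary screen in duplicate at 25 uM; actives followed up in concentration series.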
# [15] = target: human Endothelin Receptor Type A (ETA), EDNRA (gene 1909) (UniProt P25101); assay: NVS_GPCR_hETA: NovaScreen (NVS) G Protein-Coupled Receptor Assay for human Endothelin Receptor Type A (ETA) (AID 2283265)
# Summary of the method: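 Cell-free radioligand displacement using SH-SY5Y-derived protein, 3 h incubation, filter-based scintillation counting. Primary screen in duplicate at 25 uM; actives then run in concentration-response up to 50 uM; loss of binding fitted versus DMSO.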
# [16] = target: human Histamine 1 Receptor (H1), HRH1 (gene 3269) (UniProt P35367); assay: NVS_GPCR_hH1: NovaScreen (NVS) G Protein-Coupled Receptor Assay for human Histamine 1 Receptor (H1) (AID 2283268)
# Summary of the method: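 Cell-free radioligand displacement at human H1 receptor, 1 h, filter scintillation counting; primary screen 25 uM in duplicate, hits in concentration series; loss of binding fitted vs DMSO.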
# [17] = target: Muscarinic acetylcholine receptor M1 (Homo sapiens) (UniProt P11229); assay: NVS_GPCR_hM1: NovaScreen (NVS) G Protein-Coupled Receptor Assay for human Muscarinic, M1 Receptor (AID 2283270)
# Summary of the method: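 Cell-free radioligand displacement using membrane protein extracted from CHO cells, read by filter-based scintillation counting 1 h after dosing. Loss of bound signal fitted versus DMSO; primary screen single concentration 25 uM in duplicate, actives followed by concentration series.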
smiles,measurement,setting,value
N#CCCC(Br)(C#N)CBr (stereo not drawn),outcome,[1],inactive
CCOCN(C(=O)CCl)c1c(C)cccc1CC,outcome,[1],inactive
Oc1ccc(-c2ccccc2)cc1,AC50,[1],inconclusive: 1.38 µM
CCCCCCCCCc1ccc(O)cc1,AC50,[1],inconclusive: 25 µM
CC(C)(C)C(O)/C(=C\c1ccc(Cl)cc1Cl)n1cncn1 (stereo not drawn),outcome,[2],inactive
same,AC50,[3],inconclusive: 25 µM
CO/N=C(/C1=NOCCO1)c1ccccc1Oc1ncnc(Oc2ccccc2Cl)c1F,outcome,[4],inactive
same,AC50,[5],inconclusive: 45.9 µM
OCCOc1ccccc1,outcome,[6],inactive
CCC(C)(C)C(=O)OC1=C(c2ccc(Cl)cc2Cl)C(=O)OC12CCCCC2,AC50,[7],inconclusive: 25 µM
same,AC50,[8],inconclusive: 44.8 µM
same,AC50,[9],inconclusive: 0.0397 µM
CC(C)(C)C(O)C(Oc1ccc(Cl)cc1)n1cncn1 (stereo not drawn),AC50,[6],inconclusive: 0.754 µM
COc1ccc(C(c2ccc(OC)cc2)C(Cl)(Cl)Cl)cc1,AC50,[2],inconclusive: 25 µM
same,AC50,[7],inconclusive: 0.128 µM
CCC(C)(C)c1ccc(O)cc1,outcome,[2],inactive
O=S(=O)(C(Cl)(Cl)Cl)C(Cl)(Cl)Cl,AC50,[10],inconclusive: 25 µM
CO[C@@H]1[C@H](OC(=O)NC(=O)CCl)CC[C@]2(CO2)[C@H]1[C@@]1(C)O[C@@H]1CC=C(C)C,AC50,[1],inconclusive: 2.01 µM
COc1ccc(O)c(C(C)(C)C)c1,AC50,[2],active: 25 µM
same,AC50,[11],active: 25 µM
Cc1cc(-c2ccc(N)c(C)c2)ccc1N,AC50,[10],inconclusive: 25 µM
CCCCCCCCn1sccc1=O,AC50,[7],active: 17.9 µM
same,AC50,[12],active: 12.2 µM
same,AC50,[3],active: 10.9 µM
same,AC50,[11],active: 26 µM
Oc1ccc(Cl)cc1Cl,outcome,[2],inactive
CCC[CH2][Sn]([Cl])([CH2]CCC)[CH2]CCC,AC50,[13],inconclusive: 25 µM
Oc1ccc(C(c2ccc(O)cc2)(C(F)(F)F)C(F)(F)F)cc1,AC50,[14],active: 14.1 µM
NC(=O)O,AC50,[14],inconclusive: 8.44 µM
C=CCC1=C(C)C(OC(=O)C2C(C=C(C)C)C2(C)C)CC1=O (stereo not drawn),outcome,[15],inactive
same,AC50,[9],inconclusive: 25 µM
O=[N+]([O-])C(Br)(CO)CO,AC50,[15],inconclusive: 0.581 µM
O=[N+]([O-])c1ccc(Oc2ccc(Cl)cc2Cl)cc1,AC50,[16],inconclusive: 6.94 µM
Clc1ccc(C(c2ccccc2Cl)C(Cl)(Cl)Cl)cc1 (stereo not drawn),AC50,[9],inconclusive: 0.476 µM
C[C@]12C=CC3=C4CCC(=O)C=C4CC[C@H]3[C@@H]1CC[C@@H]2O,AC50,[11],inconclusive: 0.0692 µM
CO/C=C(/C(=O)OC)c1ccccc1Oc1cc(Oc2ccccc2C#N)ncn1,AC50,[11],inconclusive: 0.179 µM
O=C(O)CCCOc1ccc(Cl)cc1Cl,outcome,[17],inactive
O=C(Nc1ccc2[nH]ccc2c1)c1cc2cc(F)ccc2n1Cc1cccc(F)c1,AC50,[17],inconclusive: 25 µM

# Another view of some results above:
smiles	measurement	setting	value
COc1ccc(C(c2ccc(OC)cc2)C(Cl)(Cl)Cl)cc1	AC50	[2]	inconclusive: 25 µM
O=[N+]([O-])c1ccc(Oc2ccc(Cl)cc2Cl)cc1	AC50	[16]	inconclusive: 6.94 µM
